Data as given in patent publication US20100174053A1 (published 2010).
These are yes or no findings as the source states them, for the method shown. Some results given as binding are weak or reduced against the parent protein; the word gives no strength.

By UniProt entry, the sequences of proteins in these tests, tags left out. Residues count along the entry.
UniProt P31994, residues 43-217: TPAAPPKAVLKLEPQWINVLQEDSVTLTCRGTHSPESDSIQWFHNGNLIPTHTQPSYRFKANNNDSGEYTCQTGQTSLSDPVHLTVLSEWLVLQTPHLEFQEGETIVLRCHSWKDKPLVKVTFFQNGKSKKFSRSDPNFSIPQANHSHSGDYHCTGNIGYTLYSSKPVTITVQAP

B1: CD32B-CD79-1 bispecific diabody (bispecific antibody)
chain 1: DVVMTQSPLSLPVTLGQPASISCKSSQSLLDSDGKTYLNWFQQRPGQSPNRLIYLVSKLDSGVPDRFSGSGSGTDFTLKISRVEAEDVGVYYCWQGTHFPLTFGGGTKLEIKGGGSGGGGEVQLVESGGGLVQPGGSLRLSCAASGFTFSDAWMDWVRQAPGKGLEWVAEIRNKAKNHATYYAESVIGRFTISRDDAKNSLYLQMNSLRAEDTAVYYCGALGLDYWGQGTLVTVSSLGGC
chain 2: DIQMTQSPSSLSASVGDRVTITCRASQEISGYLSWLQQKPGKAPRRLIYAASTLDSGVPSRFSGSESGTEFTLTISSLQPEDFATYYCLQYFSYPLTFGGGTKVEIKGGGSGGGGQVQLVQSGAEVKKPGASVKVSCKASGYTFTSYWMNWVRQAPGQGLEWIGMIDPSDSETHYNQMFKDRVTMTTDTSTSTAYMELRSLRSDDTAVYYCARAMGYWGQGTTVTVSSLGGC
B2: CD32B-CD79-2 bispecific diabody (bispecific antibody)
chain 1: DVVMTQSPLSLPVTLGQPASISCKSSQSLLDSDGKTYLNWFQQRPGQSPNRLIYLVSKLDSGVPDRFSGSGSGTDFTLKISRVEAEDVGVYYCWQGTHFPLTFGGGTKLEIKGGGSGGGGEVQLVESGGGLVQPGGSLRLSCAASGFTFSDAWMDWVRQAPGKGLEWVAEIRNKAKNHATYYAESVIGRFTISRDDAKNSLYLQMNSLRAEDTAVYYCGALGLDYWGQGTLVTVSSLGGC
chain 2: DIQMTQSPSSLSASVGDRVTITCRASQEISGYLSWLQQKPGKAPRRLIYAASTLDSGVPSRFSGSESGTEFTLTISSLQPEDFATYYCLQYFSYPLTFGGGTKVEIKGGGSGGGGQVQLVQSGAEVKKPGASVKVSCKASGYTFTSYWMNWVRQAPGQGLEWIGMIDPSDSETHYNQKFKDRVTMTTDTSTSTAYMELRSLRSDDTAVYYCARAMGYWGQGTTVTVSSLGGC

Biological target: CD32B-Fc (UniProt P31994)
Assay: competition ELISA on CD32B-Fc; competitor anti-CD32B antibody at 50 ng/ml

Binder | binding
B1 | binds
B2 | binds
